Results taken from publication PMC5603801.
Construct, isoform or probe ends are uncertain for at least one entry. No signal at the amounts used counts as a negative. Tags and fusion partners may be left off the protein sequences shown.

Tested on: T1, PnpM-His6 (Pseudomonas sp. strain WBC-3)
T1 sequence (looked up, limits assumed): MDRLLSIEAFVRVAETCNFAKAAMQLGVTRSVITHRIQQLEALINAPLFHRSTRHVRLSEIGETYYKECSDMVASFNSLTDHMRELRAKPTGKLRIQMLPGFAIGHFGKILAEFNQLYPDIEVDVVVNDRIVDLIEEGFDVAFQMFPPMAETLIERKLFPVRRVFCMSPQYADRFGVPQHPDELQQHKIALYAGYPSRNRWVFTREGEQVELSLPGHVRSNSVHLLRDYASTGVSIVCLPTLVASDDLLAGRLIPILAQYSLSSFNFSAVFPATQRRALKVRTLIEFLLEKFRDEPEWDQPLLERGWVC
Assay: EMSA
Conditions: EMSA: 0.03 uM DNA, 0-2.0 uM PnpM-His6, +/-0.3 mM PNP, 30 min room temperature, 6% native PAGE at 4 C in Tris-borate, binding buffer, salt and pH not given, recombinant protein, protein details: C-terminal His6, probe letters rebuilt from the primers and the genome

Row | Sequence | binding result (0.3 mM PNP, 0.03 uM DNA, fully bound at 2.0 uM PnpM) | binding result (no PNP, 0.03 uM DNA, fully bound at 2.0 uM PnpM) | binding result (0.3 mM PNP, up to 2.0 uM PnpM)
1 | ACATGCATGCATTCGGACTGGTCGATAAACTCGGCAAAGCGCAAAACCCCGTCAAACAATGATCAAACCTGTGGGAGCAAAGCTTGCTCGCGATAGCGGTGTGTCAGTCAACATTTGTGCTGAATGACGCTTCGCTATCGCGAGCAAGCTTTGCTCCCACAGGTGTCCCACAGGTGTCTGTGCTGTTGATCGTTCGCGTTTCGCAAACACAATTGTCGGCCGGCGCCTAATTGTTCCCCTCATCAACGCGACGTACCGTGATCTCACCGCATTACAACAAAAAAGGTGAAATCATGGGATCCCG (double strand) [PpnpC (EMSA fragment)] | binds | binds | –
2 | CGGGATCCCATGTCGGTTTCCTTGATAAAAATATTGTCTTATTTCTTTCGGCTTATGTGTGCGTGGCACTTAAACCTGTTCAAACACCTTGCGGTGGTTGCTTGTTGCAGCATGAGCAGACAAAGAAAACAACACAACCGTATCAAGGTTCAGTATTTGCAAACGTTCCGGTTGGCAAATTAGAACGATCGAAAATGCAATCGGCTAGTTCGGGAAAATCAAACTAAATCGCATTGCTTCGATAATTCCTGAAGGTTTAGGCTGAATCCAGTTGCCTGCAATTGCCTGGATTACATTCCAAGTAGCAGGCTTTCCCTGCGAGCCGTTTTCTATAGGAAGCATGCATGT (double strand) [PpnpB] | – | – | no binding
3 | CGGGATCCCATTTTATTTTTCCTATAGAAAACGGCTCGCAGGGAAAGCCTGCTACTTGGAATGTAATCCAGGCAATTGCAGGCAACTGGATTCAGCCTAAACCTTCAGGAATTATCGAAGCAATGCGATTTAGTTTGATTTTCCCGAACTAGCCGATTGCATTTTCGATCGTTCTAATTTGCCAACCGGAACGTTTGCAAATACTGAACCTTGATACGGTTGTGTTGTTTTCTTTGTCTGCTCATGCTGCAACAAGCAACCACCGCAAGGTGTTTGAACAGGTTTAAGTGCCACGCACACATAAGCCGCATGCATGT (double strand) [PpnpA] | – | – | no binding
